Measurements reported in PubChem BioAssay AID652243 (Drosophila RNAi Screening Center, 2013)
In all, the deposit lists about 24,000 reagents; this is an unselected part of those with a known target gene and a result. Over the whole deposit, 246 (1%) got an active call. 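Plates not normalised; calls are printed but the firefly/Renilla ratio behind them is not deposited; fold cut for lowering reported inconsistently.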 Raw values vary from plate to plate and are shown uncorrected. No sequences are given here. The record does not give: the amount of reagent.

- Aim: 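Knock-downs that decrease or increase androgen receptor reporter signal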 (primary screen)
- System: Drosophila S2R+ cells
- Knock-down reagent: long dsRNA against Drosophila genes
- Time to read-out: 72 h (48 h, then 24 h hormone)
- Treatment: synthetic androgen R1881 at 10 nM for 24 h
- Measurement: 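Firefly light from an androgen-responsive reporter and Renilla control light per well, raw and unnormalised, for each of two replicates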
- Direction: firefly reporter light: higher = more light from androgen-responsive reporter; Renilla control light: higher = more constitutive control signal (cell number, transfection)
- Active means: 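Across duplicate plates, a knock-down whose log firefly/Renilla ratio shifted a set fold down or up from the GFP/LacZ control mean was a hit; the downward cut appears as both 1.5 and 3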
- Calls: active = hit: reporter lowered or raised; inactive = no hit

For Cec-Psi1 [DRSC21956], the values are firefly reporter light, replicate 1 = 4.51e5; firefly reporter light, replicate 2 = 4.68e5; Renilla control light, replicate 1 = 1.24e6; Renilla control light, replicate 2 = 1.05e6; inactive. Depletion of Usp2 [DRSC20590] came out at: firefly reporter light, replicate 1 = 9.74e5; firefly reporter light, replicate 2 = 6.86e5; Renilla control light, replicate 1 = 1.33e6; Renilla control light, replicate 2 = 1.21e6; inactive. Against Usp2 [DRSC20632], the values are firefly reporter light, replicate 1 = 16224; firefly reporter light, replicate 2 = 15779; Renilla control light, replicate 1 = 1.77e5; Renilla control light, replicate 2 = 2.15e5; inactive. For Usp2 [DRSC20633], the values are firefly reporter light, replicate 1 = 1.14e5; firefly reporter light, replicate 2 = 72026; Renilla control light, replicate 1 = 3.68e5; Renilla control light, replicate 2 = 1.73e5; inactive. After knock-down of Usp2 [DRSC27066] the results were firefly reporter light, replicate 1 = 4.59e5; firefly reporter light, replicate 2 = 3.11e5; Renilla control light, replicate 1 = 1.08e6; Renilla control light, replicate 2 = 6.37e5; inactive. Against LSm7 [DRSC02251], the values are firefly reporter light, replicate 1 = 1.65e5; firefly reporter light, replicate 2 = 1.59e5; Renilla control light, replicate 1 = 1.59e6; Renilla control light, replicate 2 = 1.22e6; inactive.

CG11843 [DRSC14401] showed firefly reporter light, replicate 1 = 2.59e5; firefly reporter light, replicate 2 = 2.31e5; Renilla control light, replicate 1 = 2.63e6; Renilla control light, replicate 2 = 3.38e6; inactive. Against l(3)87Df [DRSC16982] the deposit lists firefly reporter light, replicate 1 = 1.66e5; firefly reporter light, replicate 2 = 2.68e5; Renilla control light, replicate 1 = 1.76e6; Renilla control light, replicate 2 = 2.25e6; inactive. With knock-down of Ugt37C1 [DRSC07416], the screen gave firefly reporter light, replicate 1 = 63632; firefly reporter light, replicate 2 = 98822; Renilla control light, replicate 1 = 8.87e5; Renilla control light, replicate 2 = 8.87e5; inactive. For Ugt37C1 [DRSC24066] the deposit lists firefly reporter light, replicate 1 = 6.07e5; firefly reporter light, replicate 2 = 4.35e5; Renilla control light, replicate 1 = 1.94e6; Renilla control light, replicate 2 = 6.38e5; inactive.

A run of entries from the list above:
Usp2 [DRSC20632] — firefly reporter light, replicate 1 = 16224; firefly reporter light, replicate 2 = 15779; Renilla control light, replicate 1 = 1.77e5; Renilla control light, replicate 2 = 2.15e5; call = inactive
Usp2 [DRSC20633] — firefly reporter light, replicate 1 = 1.14e5; firefly reporter light, replicate 2 = 72026; Renilla control light, replicate 1 = 3.68e5; Renilla control light, replicate 2 = 1.73e5; call = inactive
Usp2 [DRSC27066] — firefly reporter light, replicate 1 = 4.59e5; firefly reporter light, replicate 2 = 3.11e5; Renilla control light, replicate 1 = 1.08e6; Renilla control light, replicate 2 = 6.37e5; call = inactive
LSm7 [DRSC02251] — firefly reporter light, replicate 1 = 1.65e5; firefly reporter light, replicate 2 = 1.59e5; Renilla control light, replicate 1 = 1.59e6; Renilla control light, replicate 2 = 1.22e6; call = inactive

The results go on.
For CG34293 [DRSC38694] the deposit lists firefly reporter light, replicate 1 = 9.66e5; firefly reporter light, replicate 2 = 7.74e5; Renilla control light, replicate 1 = 1.50e6; Renilla control light, replicate 2 = 1.60e6; inactive. Silencing of CG9436 [DRSC05005] resulted in: firefly reporter light, replicate 1 = 9.09e5; firefly reporter light, replicate 2 = 7.30e5; Renilla control light, replicate 1 = 2.08e6; Renilla control light, replicate 2 = 1.71e6; inactive. For awd [DRSC16906] the deposit lists firefly reporter light, replicate 1 = 2.29e5; firefly reporter light, replicate 2 = 2.28e5; Renilla control light, replicate 1 = 1.99e6; Renilla control light, replicate 2 = 3.50e6; inactive. awd [DRSC36594] scored inactive. For RhoGAP68F [DRSC10717] the deposit lists firefly reporter light, replicate 1 = 6.02e5; firefly reporter light, replicate 2 = 5.73e5; Renilla control light, replicate 1 = 1.08e6; Renilla control light, replicate 2 = 1.61e6; inactive. For Nup358 [DRSC14410], the entry reads firefly reporter light, replicate 1 = 80414; firefly reporter light, replicate 2 = 80535; Renilla control light, replicate 1 = 9.71e5; Renilla control light, replicate 2 = 9.84e5; inactive.

Against Nup358 [DRSC29772], the values are firefly reporter light, replicate 1 = 5.32e5; firefly reporter light, replicate 2 = 2.99e5; Renilla control light, replicate 1 = 1.52e6; Renilla control light, replicate 2 = 1.30e6; inactive. Depletion of CG13991 [DRSC02323] resulted in: firefly reporter light, replicate 1 = 2.08e5; firefly reporter light, replicate 2 = 1.40e5; Renilla control light, replicate 1 = 2.34e6; Renilla control light, replicate 2 = 1.61e6; inactive. Scgdelta [DRSC18544] gave firefly reporter light, replicate 1 = 4.36e5; firefly reporter light, replicate 2 = 3.50e5; Renilla control light, replicate 1 = 4.06e6; Renilla control light, replicate 2 = 3.50e6; inactive. ND-23 [DRSC15526] showed firefly reporter light, replicate 1 = 1.07e5; firefly reporter light, replicate 2 = 74602; Renilla control light, replicate 1 = 4.53e5; Renilla control light, replicate 2 = 6.59e5; inactive. For CG10581 [DRSC11623], the entry reads firefly reporter light, replicate 1 = 2.50e5; firefly reporter light, replicate 2 = 1.93e5; Renilla control light, replicate 1 = 2.15e6; Renilla control light, replicate 2 = 2.29e6; inactive. For ry [DRSC17048], the entry reads firefly reporter light, replicate 1 = 81575; firefly reporter light, replicate 2 = 50836; Renilla control light, replicate 1 = 3.27e5; Renilla control light, replicate 2 = 2.80e5; inactive.

ry [DRSC27399] showed firefly reporter light, replicate 1 = 3.55e5; firefly reporter light, replicate 2 = 2.61e5; Renilla control light, replicate 1 = 5.26e5; Renilla control light, replicate 2 = 5.42e5; inactive. CG31021 [DRSC22319] scored firefly reporter light, replicate 1 = 1.12e6; firefly reporter light, replicate 2 = 1.20e6; Renilla control light, replicate 1 = 1.55e6; Renilla control light, replicate 2 = 1.50e6; inactive. Against Sec23 [DRSC12387], the values are firefly reporter light, replicate 1 = 55362; firefly reporter light, replicate 2 = 47292; Renilla control light, replicate 1 = 2.30e5; Renilla control light, replicate 2 = 2.67e5; inactive. For CG31211 [DRSC14953] the deposit lists firefly reporter light, replicate 1 = 3.07e5; firefly reporter light, replicate 2 = 3.10e5; Renilla control light, replicate 1 = 2.19e6; Renilla control light, replicate 2 = 2.65e6; inactive. Knock-down of CG31211 [DRSC15344] gave: firefly reporter light, replicate 1 = 1.26e5; firefly reporter light, replicate 2 = 1.35e5; Renilla control light, replicate 1 = 1.90e6; Renilla control light, replicate 2 = 1.95e6; inactive. Against CG31211 [DRSC21478], the values are firefly reporter light, replicate 1 = 6.14e5; firefly reporter light, replicate 2 = 8.19e5; Renilla control light, replicate 1 = 1.06e6; Renilla control light, replicate 2 = 1.21e6; inactive.
